Like-named read-outs stand apart in the source and are kept apart here. These are yes or no findings as the source states them, for the method shown. Binding seen in cells or lysates may run through a third protein. Here binding means that the protein was enriched with, or labelled near, the bait; the list need not be complete. For some of these results: A no says only that the protein was not detected with the bait. For some of these results: Sequences can lack the tags named with a protein.

Chains of the proteins cited; added tags and fusions are not shown.
UniProt S8EZL1: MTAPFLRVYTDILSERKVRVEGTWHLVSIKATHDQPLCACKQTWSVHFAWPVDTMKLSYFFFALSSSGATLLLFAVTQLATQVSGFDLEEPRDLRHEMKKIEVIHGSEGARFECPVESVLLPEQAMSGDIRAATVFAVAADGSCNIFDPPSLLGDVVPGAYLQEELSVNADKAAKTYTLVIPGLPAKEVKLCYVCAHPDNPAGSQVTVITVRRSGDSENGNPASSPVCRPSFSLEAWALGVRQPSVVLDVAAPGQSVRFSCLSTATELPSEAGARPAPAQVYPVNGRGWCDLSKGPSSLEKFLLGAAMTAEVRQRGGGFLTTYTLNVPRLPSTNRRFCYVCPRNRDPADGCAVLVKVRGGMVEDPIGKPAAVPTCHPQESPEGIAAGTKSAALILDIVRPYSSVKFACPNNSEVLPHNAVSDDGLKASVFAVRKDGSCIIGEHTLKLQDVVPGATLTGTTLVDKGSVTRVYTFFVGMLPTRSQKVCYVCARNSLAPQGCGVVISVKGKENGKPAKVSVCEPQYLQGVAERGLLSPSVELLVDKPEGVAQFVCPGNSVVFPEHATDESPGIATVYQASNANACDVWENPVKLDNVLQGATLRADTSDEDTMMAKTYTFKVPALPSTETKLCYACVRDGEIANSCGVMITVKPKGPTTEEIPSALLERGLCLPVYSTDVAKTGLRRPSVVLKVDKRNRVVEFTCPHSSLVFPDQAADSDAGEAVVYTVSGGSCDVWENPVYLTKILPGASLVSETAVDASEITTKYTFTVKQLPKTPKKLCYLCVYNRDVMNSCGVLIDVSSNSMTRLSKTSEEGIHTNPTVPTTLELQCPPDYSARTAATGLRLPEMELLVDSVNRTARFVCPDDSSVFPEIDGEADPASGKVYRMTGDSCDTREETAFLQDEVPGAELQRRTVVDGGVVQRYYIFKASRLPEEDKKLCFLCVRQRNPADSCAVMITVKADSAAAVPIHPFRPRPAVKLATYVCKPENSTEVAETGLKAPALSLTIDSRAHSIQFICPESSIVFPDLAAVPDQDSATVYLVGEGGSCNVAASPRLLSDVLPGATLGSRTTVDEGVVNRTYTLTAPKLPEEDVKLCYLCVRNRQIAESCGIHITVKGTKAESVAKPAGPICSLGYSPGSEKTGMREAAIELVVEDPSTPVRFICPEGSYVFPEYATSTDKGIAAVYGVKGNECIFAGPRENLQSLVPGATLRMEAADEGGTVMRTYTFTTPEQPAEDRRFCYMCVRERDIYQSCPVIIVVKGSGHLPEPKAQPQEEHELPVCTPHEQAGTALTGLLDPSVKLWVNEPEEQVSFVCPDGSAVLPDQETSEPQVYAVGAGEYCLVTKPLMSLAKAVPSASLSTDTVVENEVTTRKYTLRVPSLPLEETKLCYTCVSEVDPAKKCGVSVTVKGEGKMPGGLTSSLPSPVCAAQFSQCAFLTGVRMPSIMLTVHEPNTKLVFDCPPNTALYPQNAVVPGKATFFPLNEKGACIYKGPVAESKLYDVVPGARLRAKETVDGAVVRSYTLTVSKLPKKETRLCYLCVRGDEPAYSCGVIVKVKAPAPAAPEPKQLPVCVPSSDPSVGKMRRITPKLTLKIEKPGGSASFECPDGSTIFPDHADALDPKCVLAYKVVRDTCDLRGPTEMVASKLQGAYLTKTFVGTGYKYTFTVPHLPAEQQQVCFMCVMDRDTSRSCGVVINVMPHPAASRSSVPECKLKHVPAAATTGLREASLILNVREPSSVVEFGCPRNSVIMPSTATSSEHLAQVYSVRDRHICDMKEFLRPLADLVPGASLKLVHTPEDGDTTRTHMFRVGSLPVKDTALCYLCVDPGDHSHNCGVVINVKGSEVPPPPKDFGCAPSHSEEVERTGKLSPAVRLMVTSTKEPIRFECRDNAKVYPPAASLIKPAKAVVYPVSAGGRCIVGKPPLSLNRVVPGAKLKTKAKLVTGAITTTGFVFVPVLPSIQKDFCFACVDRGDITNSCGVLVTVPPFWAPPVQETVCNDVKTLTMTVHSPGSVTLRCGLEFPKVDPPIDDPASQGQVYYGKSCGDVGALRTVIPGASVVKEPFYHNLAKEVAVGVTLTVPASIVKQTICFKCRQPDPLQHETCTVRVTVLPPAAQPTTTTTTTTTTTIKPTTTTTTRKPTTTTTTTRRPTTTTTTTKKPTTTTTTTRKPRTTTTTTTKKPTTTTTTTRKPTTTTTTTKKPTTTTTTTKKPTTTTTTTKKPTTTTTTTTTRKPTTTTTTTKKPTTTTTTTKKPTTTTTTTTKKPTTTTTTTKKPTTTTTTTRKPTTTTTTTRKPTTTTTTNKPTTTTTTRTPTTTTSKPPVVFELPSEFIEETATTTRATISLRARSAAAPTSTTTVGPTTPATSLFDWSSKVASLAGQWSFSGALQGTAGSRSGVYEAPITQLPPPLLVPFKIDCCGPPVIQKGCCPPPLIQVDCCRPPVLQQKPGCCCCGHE

The text below walks through data of paper PMC3879359.

Holding throughout (experiment): affinity purification with mass spectrometry; anti-HA magnetic beads on nuclear extracts of intracellular tachyzoites, overnight at 4°C; washes with 150 mM NaCl, 1% NP-40, 0.5% sodium deoxycholate, 0.1% SDS, 50 mM Tris-HCl pH 8.0; SDS-PAGE, LC-MS/MS; parental lines as negative controls
Experiment [1] addresses T1, HAmyc-tagged full-length GCN5b (Toxoplasma gondii) (UniProt S8F3V2).
T1 sequence: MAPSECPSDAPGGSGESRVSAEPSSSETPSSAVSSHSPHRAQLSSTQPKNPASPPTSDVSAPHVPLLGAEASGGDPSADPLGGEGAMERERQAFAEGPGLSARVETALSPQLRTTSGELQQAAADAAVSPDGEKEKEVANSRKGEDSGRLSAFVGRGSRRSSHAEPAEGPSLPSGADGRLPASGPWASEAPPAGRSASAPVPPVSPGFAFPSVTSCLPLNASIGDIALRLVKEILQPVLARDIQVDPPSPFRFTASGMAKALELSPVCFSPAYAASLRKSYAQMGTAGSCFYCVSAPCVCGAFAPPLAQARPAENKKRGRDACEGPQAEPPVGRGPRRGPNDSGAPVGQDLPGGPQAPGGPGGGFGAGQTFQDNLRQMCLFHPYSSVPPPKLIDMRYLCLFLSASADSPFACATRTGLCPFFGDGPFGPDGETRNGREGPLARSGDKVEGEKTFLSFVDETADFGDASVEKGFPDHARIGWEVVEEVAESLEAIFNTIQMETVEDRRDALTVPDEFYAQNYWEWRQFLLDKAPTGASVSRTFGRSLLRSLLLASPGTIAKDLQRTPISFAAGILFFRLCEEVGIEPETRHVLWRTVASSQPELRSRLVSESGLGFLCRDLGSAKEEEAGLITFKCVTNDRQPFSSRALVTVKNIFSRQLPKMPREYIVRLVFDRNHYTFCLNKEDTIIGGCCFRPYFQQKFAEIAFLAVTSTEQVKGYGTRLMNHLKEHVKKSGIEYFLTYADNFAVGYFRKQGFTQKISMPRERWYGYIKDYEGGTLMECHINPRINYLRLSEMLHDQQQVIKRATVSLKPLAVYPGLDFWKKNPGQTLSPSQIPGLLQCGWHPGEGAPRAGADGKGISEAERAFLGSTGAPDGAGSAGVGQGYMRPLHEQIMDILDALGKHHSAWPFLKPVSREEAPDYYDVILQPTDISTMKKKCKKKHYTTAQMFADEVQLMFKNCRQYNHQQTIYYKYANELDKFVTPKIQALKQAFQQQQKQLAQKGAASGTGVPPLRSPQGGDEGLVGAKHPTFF

Experiment [2] has as its target AP2IX-7 endogenously tagged with a C-terminal 3xHA tag (Toxoplasma gondii (endogenous locus tagged in RHΔku80)).
The target of experiment [3] is AP2X-8 endogenously tagged with a C-terminal 3xHA tag (Toxoplasma gondii (endogenous locus tagged in RHΔku80)).
For experiment [4], the target named is T1, HAmyc-tagged full-length GCN5b (Toxoplasma gondii). The source holds these as a separate data set.

Consider AP2X-8 (endogenous, untagged), for which the binding result in experiment [1] was “binds”.

As to AP2XII-4 (from UniProt A0A125YU40), in experiment [1], the binding entry is “binds”.

On to “SPT6 transcription elongation factor SPT6 (from UniProt S8ESH5)”, for which the binding result in experiment [1] is on record as “binds”.

In the case of SWI/SNF ATPase (TGME49_120300), the binding entry in experiment [1] is “binds”.

Consider AP2IX-7 (endogenous, untagged), for which, in experiment [1], the binding result is listed as “binds”.

On to AT-hook protein (TGME49_109250), for which the binding result in experiment [1] was “binds”.

AP2X-5 (endogenous, untagged): in experiment [1], the binding result is listed as “no binding”.

On to SRS44 (from UniProt S8EZL1 1-2451), for which, in experiment [1], the binding result was “binds”.

With MyoF, in experiment [1], the binding result is listed as “binds”.

As to splicing factor 3B subunit 3, the binding entry in experiment [1] is given as “binds”.

As for CTR9, the binding entry in experiment [1] was “binds”.

Consider RRM protein (TGME49_062620), for which the binding result in experiment [1] was “binds”.

For TAF1/TAF250, the binding entry in experiment [1] is reported as “binds”.

As for AP2XI-2 (from UniProt A0A125YJB8), in experiment [1], the binding result is given as “binds”.

For RRM protein (TGME49_105850), the binding entry in experiment [1] was “binds”.

On to SWI/SNF ATPase (TGME49_078440), for which the binding result in experiment [1] is on record as “binds”.

For the molecule ADA2-A transcriptional co-activator, in experiment [1], the binding result is “binds”.

On to “sec63 domain-containing DEAD/DEAH box helicase”, for which the binding result in experiment [1] is “binds”.

Take “protein transport protein Sec61 alpha subunit isoform 1”: the binding entry in experiment [1] was “binds”.

B1: GCN5b (endogenous) (enzyme, UniProt S8F3V2 1-1032)
chain: MAPSECPSDAPGGSGESRVSAEPSSSETPSSAVSSHSPHRAQLSSTQPKNPASPPTSDVSAPHVPLLGAEASGGDPSADPLGGEGAMERERQAFAEGPGLSARVETALSPQLRTTSGELQQAAADAAVSPDGEKEKEVANSRKGEDSGRLSAFVGRGSRRSSHAEPAEGPSLPSGADGRLPASGPWASEAPPAGRSASAPVPPVSPGFAFPSVTSCLPLNASIGDIALRLVKEILQPVLARDIQVDPPSPFRFTASGMAKALELSPVCFSPAYAASLRKSYAQMGTAGSCFYCVSAPCVCGAFAPPLAQARPAENKKRGRDACEGPQAEPPVGRGPRRGPNDSGAPVGQDLPGGPQAPGGPGGGFGAGQTFQDNLRQMCLFHPYSSVPPPKLIDMRYLCLFLSASADSPFACATRTGLCPFFGDGPFGPDGETRNGREGPLARSGDKVEGEKTFLSFVDETADFGDASVEKGFPDHARIGWEVVEEVAESLEAIFNTIQMETVEDRRDALTVPDEFYAQNYWEWRQFLLDKAPTGASVSRTFGRSLLRSLLLASPGTIAKDLQRTPISFAAGILFFRLCEEVGIEPETRHVLWRTVASSQPELRSRLVSESGLGFLCRDLGSAKEEEAGLITFKCVTNDRQPFSSRALVTVKNIFSRQLPKMPREYIVRLVFDRNHYTFCLNKEDTIIGGCCFRPYFQQKFAEIAFLAVTSTEQVKGYGTRLMNHLKEHVKKSGIEYFLTYADNFAVGYFRKQGFTQKISMPRERWYGYIKDYEGGTLMECHINPRINYLRLSEMLHDQQQVIKRATVSLKPLAVYPGLDFWKKNPGQTLSPSQIPGLLQCGWHPGEGAPRAGADGKGISEAERAFLGSTGAPDGAGSAGVGQGYMRPLHEQIMDILDALGKHHSAWPFLKPVSREEAPDYYDVILQPTDISTMKKKCKKKHYTTAQMFADEVQLMFKNCRQYNHQQTIYYKYANELDKFVTPKIQALKQAFQQQQKQLAQKGAASGTGVPPLRSPQGGDEGLVGAKHPTFF
On to B1, for which the binding entry in experiment [2] and in experiment [3] was “binds” each time.

B2: LEO1 Paf1/RNA polymerase II complex component LEO1 (protein, UniProt S8ETE7 1-377)
chain: MEEAAHASPEVLDGGAWPAVAEHTGEEEATSDDSPQTQRRPEAQDLEPEAVEAEDDLFGEGRDEDLFGEEDDELEVSRQKARDALSPTDPTADAQPDDAAAKGEEALAREEEAFSRFDEEGRRHSDDEEPCEDDQEIQLPIQELPPSTKDARLVVLRLPPTVSVKVRGAPANSRPHSSSSAAISADDKFTIEWGHPGGKKDGEHEAAEDKVPASNCKLVEWGDGSYSLFVGRQMFDVQVKRDPTLFFENSSSETIKTLHCRAESRFQVRLGELLNFREFFTQRNMRHGKKRRAALTTQEQIERAEQLTRKTVERRHEAARTRRRQADSARGLERGLTRHFLEADSEEELEAKQDEEEEDGSSLAKIKEQYKRQKRFK
Take B2: the binding result in experiment [2], in experiment [3] and in experiment [4] was “binds” in each case.

B3: RTF1 (protein, UniProt S8FA68 1-783)
chain: MKSAARGRQAQQRGRPSSGSRVSAEDEGKRHSSSSRETGGDAAWRRGKPGDRNGEFSPDLLYKDERDREALESMNEFEREAELARRYEELVRERQRKELLRRQDQDRKSKAGRLGDALSDIRARRARQKQQQRQTSEDEDEEEGEVSGSRKDGTEDMTESSSEDEEDEEEKKRLASPPVGAGGPGASSGVSAAADAAVGSGASAAPLSPDRGEGAGTADGVALGVGSASAGDASVENEALGRRKVSTAKSAREDEGGEPTTQQQRPVEDDRRGDLFDEDRVDSDEQRRKETARRMLQRISLELLNGVRLSTERLLHMLEHPQAEKFVRGCFVKVPQPAAAASKSPSPESPPVAWVCQIVGLRPCAPYFVPKASGTLAESAGLGAESRRGSVPCAVKLLLRVAPKASAKFDREFSLAELLNSPVTPAEYEGWKKKLQEFDSVEDLSKKLRAKLQQLKEFTFTDEDVQAILSKKQDSGAGSFLMTTGTLLKQLMSIKHEMDSLHASLSSVSTASAARRELKEKLQVLVARKAEVEAKLAKSKAAAGRARNSSTIHQVSVERRREKLSKFILNDPKRSMRKGVGREPSKASPPAATAAALTCADLLFGDGEEDAGRRKRCREGSDEVGRDRSHGGGDSRSAENRLSPFDDTRAASASPAFPSGGRDASSPRLGGESEHRSASPSSSQPRGVAGPLSSGTPQATAAWKFLLHGAPKEQRVWVKHTVQKYREGGPLNIDTANIPPPRPYASVVALLPPTPPPPSDSLLISLEEYKQQVAQLANMQLAG
As for B3, the binding entry in experiment [4] was “binds”.

B4: TAF5 transcription initiation factor TFIID subunit 5 (protein, UniProt S8FCN0 1-1094)
chain: MTEGRPVSVSFPLTASQQTRETVRPMGEPPPSDSSNSSVGDASKPLSSPSSSSASSSASLSSSSSSSLSSSSSSSSVSPVDPRGLGASAAAVVPSTSSASEKLSEIFHLLQQKYHVDSRMLDSLQEAISSFKSGPSLSSSLASSSSPRPEQTQAAAPARAAPSAEEAAVVALGTLGGRLSGQGASPLALPGSNALLSFDVYERIYNRFCIWILSLFEDCREELMDVAFAVLLHMFRKLLTVDAYQAHQLLRRFSPLHAGKHGSLLKQLEDAEPVHPLQLCQIPYFASEERNPLYISERAYFLLRTWLVDTRCLLLEVMIQAASRLLPPPSHAPHARGLVYRGLLGPSLSQSLLSPPSSHPLSSLPAGLRRHEETPAPTTQEKAVAQRAGDLAFFDAPPPFRSQPGDPEKGEKSDEREEDRSALDNSGELPPVVWGLPRQFFREETTVIGPSGERTKRVRLLGGENLRETELAEPNSLLPLPEPPKDSFLLYRRLIKQQTERRAPLSAAAGQWPSIACMTVLNSSSESACCAVSPSTCRLVAVGGEGEIRLWDLQQYQVTKARRERQRRRWLLRTQQMAQEGQPLSSFLSASKPAADDEDGEASGSEKDDAPEEKKSSSGKSLHRRKNAASAAPLALDWGEDTAGEAGVSCLVGTDGRVLSLAFGEMDDRILLSGGTDGVVRLWPSYPSAAWASTLLDEDEGEALEEKGEERQLKKAPGTGESGAQESAEGEGEQAPRSVSRGLPGSRSSVVSPLCVYRGALAAVWALDVGPYGHYFASGSSDNCARLWCTSRSFPLRLLQHPAAATDVFHVAFHPNSSLLLTAASDNCVRLFDLRSAQLARAWAPLLLPVVDGEARGRATEEPEEGDGEQRDRQERRERRGTDRKVEKHDSSPFMRRKRVYEDVKKPGAKHLRLGKKRGSPVFRASDDEEEEKRQAERRRSGRVTALAMSPNGRLAAVGDSAGGVCVFDIPSGRPLAIGSSPSMQKREERFSPLHFPPSIASLSFCHGSSFLASAAVDGTVALWDTSGGALQIPEADGTFRQKSGLFAGRPVTALSLAETYGASHVAFRSCLFSPENLLFCLGFSTLCSDEDFL
In the case of B4, the binding entry in experiment [2], in experiment [3] and in experiment [4] was “binds” in each case.
